Measurements as given in PubChem BioAssay AID1347423 (Functional Genomics Laboratory (NCATS/FGL), 2020).
About 210 (0.4%) of roughly 52,000 sequences were called active.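 How the source made its calls: active means gene whose silencing raises cell survival under the drug, median off-target-corrected z-score across its silencing RNAs 2 or more; inactive means the rest.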 This is one part of the list.

Experiment: Resistance to Poly (ADP-Ribose) Polymerase inhibitor: Gene Identification via Genome-wide siRNA Screen
Settings: mouse BRCA2 R2336H ES cells, olaparib, CellTiter-Glo viability; stronger effect = higher value
Summary of the method: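 Genome-wide siRNA screen (3 siRNAs/gene, 20 nM) in mouse ES cells carrying hypomorphic BRCA2 R2336H; olaparib 500 nM added 48 h post-transfection, CellTiter-Glo viability 72 h later. Normalized to plate-median negative control; MAD z-scores, gene median, seed-adjusted.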

Row | Sequence | z-score
1 | GGGUCCAUGACAAUUCACATT against Rhbg | inactive: -1.01
2 | GGACAAUGUAUGGAUCCCATT against Pilra | inactive: -0.733
3 | GGCAAUUAUUCGUGUCUUATT against 4930449I24Rik | inactive: -0.508
4 | GCUGGUUUACCAAAACAUATT against Gna14 | inactive: 1.02
5 | GCACUUCCCUCCCUAUGCATT against 0610037P05Rik | inactive: -1.25
6 | GCAUUAUGGGCUUUUAUGATT against Dnaja1 | inactive: 0.638
7 | GCAACACACCAUAUCAGGATT against Tas2r135 | inactive: -0.137
8 | GGAUGCAUUUCUGAGCCACTT against Tacc2 | inactive: -1.28
9 | GUCAUCGCUCCCAAGAAGGTT against D8Ertd738e | inactive: 0.0227
10 | GGGCACAAGGUCAUAACUGTT against Piga | inactive: -0.841
11 | GGUGUAGAAUAGGACAAAUTT against Ntsr2 | inactive: -0.114
12 | GGCAACAUUGAUCAAGUGGTT against Sitpec | inactive: -0.797
13 | GCUUACAAGGCAUGUAUGATT against E430018M08Rik | inactive: 0.2
14 | GGAAUCAGUGACCUUUUUCTT against Arf2 | inactive: -2.16
15 | GGCUCUGGAUAAUUACUAUTT against Eif1a | inactive: -0.369
16 | GGAGACAACAGAUUUCCUGTT against Bcl2l12 | inactive: 1.03
17 | GGUUUACCUCUAUGCUAUGTT against Upk3a | inactive: 2.04
18 | GGGCCACCCAAAACAUCUUTT against V1rc27 | inactive: 0.67
19 | CGAACAUUUCAUCUGAUGATT against Ntrk2 | inactive: 0.337
20 | CCCAAUUUGAUUAUAGGUUTT against Olfr1243 | inactive: 0.1
21 | GCCCUUGAUUGACAAGGAATT against Mrps7 | inactive: 1.33
22 | GGUUUGGCAAAGAAACACATT against Itpa | inactive: -1.77
23 | UCGUGUGCCUGAUGAUCACTT against Abcc5 | inactive: 0.94
24 | GAGAGAUUGAGCUUGAAAGTT against Fxc1 | inactive: 0.941
25 | GGACAUUGAACAACACUAUTT against Krt1-9 | inactive: -0.0349
26 | GCCCACCGACUUUAUUAACTT against Tcfap2d | inactive: 1.35

Row | Sequence | z-score
27 | GCCCUACCCUCAUCAUAAATT against 2310067B10Rik | inactive: 0.557
28 | AUGCACCAUGCCAUUGACCTT against Oxct2a | inactive: 1.51
29 | GGAGUCUGCUCUCAUUCUUTT against Slc30a1 | inactive: 0.953
30 | GGCCACAAACAGAAUUAUCTT against Mrpl2 | inactive: 0.421
31 | GGAUCCACACAUAUGAGGATT against Rdhs | inactive: 1.29
32 | GGCAGAACACAGUUCGAUCTT against Ckap1 | inactive: -0.843
33 | CGACUUUUCUCAUUAUGAGTT against Ythdf1 | inactive: 0.575
34 | GGCACUCCUAAUCCUUUCCTT against 9430077A04Rik | inactive: 0.967
35 | GGAAUUUGUACCAUGUAUCTT against MGI:2153084 | inactive: 1.43
36 | GGUGAUUGGCUGGAUCUACTT against Ctns | inactive: -2.07
37 | GGCUGAUGUAAUCUCUAAATT against Slc9a8 | inactive: -0.954
38 | GGUCUUCCAGAACAAUUACTT against Prtn3 | inactive: -0.437
39 | GGAGAUGAGGUGAAGUGGATT against BC048390 | inactive: -0.237
40 | GGACUGACACGGGUGUCUUTT against AI480653 | inactive: -0.582
41 | GGAUGACCUACGAGUGUUATT against Taf5 | inactive: -1.25
42 | GGCGAGGAGAACAUGCUGUTT against 3632410F03Rik | inactive: -0.0629
43 | GGCUUUAGGUAGUAGUCUCTT against 2310037I24Rik | inactive: 0.0847
44 | GGAUCUAUAGAAUAGCUCUTT against Rnpc2 | inactive: -0.218
45 | GGCCACCAAGAAAUUCAAATT against Cd22 | inactive: 0.766
46 | GGAACAAUACAUCGACACUTT against Grin2c | inactive: 0.303
47 | GGAGUUUGCAAAAAAUUCUTT against Olfr294 | inactive: 0.463
48 | CGAGCCCAUGUCAGAUCAGTT against AF529169 | inactive: -1.18
49 | CGAAUGCUGUACUUCAAAATT against Fsip1 | inactive: 1.37
50 | GCAGAUUUGCACUGAAUCATT against Ndrg3 | inactive: 0.994
51 | GGCCAAUGCCCUUUUUUGATT against 4933402P03Rik | inactive: 0.995
52 | GGUAGAGGUGGAAUGUAGCTT against Qprt | inactive: -0.11

5 records picked at random from the list so far:
Row | Sequence | z-score
48 | CGAGCCCAUGUCAGAUCAGTT against AF529169 | inactive: -1.18
46 | GGAACAAUACAUCGACACUTT against Grin2c | inactive: 0.303
40 | GGACUGACACGGGUGUCUUTT against AI480653 | inactive: -0.582
43 | GGCUUUAGGUAGUAGUCUCTT against 2310037I24Rik | inactive: 0.0847
39 | GGAGAUGAGGUGAAGUGGATT against BC048390 | inactive: -0.237

Quoted from the listing.
For z-score, GGAGUUUGCAAAAAAUUCUTT against Olfr294 is entered as inactive: 0.463
For z-score, GGAACAAUACAUCGACACUTT against Grin2c is entered as inactive: 0.303

Following part

Row | Sequence | z-score
53 | GGACCUGGAGCUGAGAAGATT against 2310042P20Rik | inactive: -1.48
54 | GAAAGCGGAGAUACUGGAGTT against Hes7 | inactive: 0.873
55 | GGAGCUGAGCUCUCAGAAGTT against Ga17 | inactive: -2.72
56 | CCAAGCUUAGCAAGGAGUATT against Cyp2f2 | inactive: -0.178
57 | CCAAGAAUUACCACUUAUCTT against Phf11 | inactive: -0.949
58 | GGUCUUCAACGAAACCAACTT against Ly6g6c | inactive: 1.41
59 | CCUCUCUACAUCCACUACUTT against Pogz | inactive: -0.312
60 | GGGCCAAGAGCUUCUUUGATT against Ahr | inactive: -0.431
61 | CGAUCUACAUCUGCAUCAUTT against Olfr1212 | inactive: -0.961
62 | GCUCGAGAACAGUACCAUUTT against Hlcs | inactive: -0.152
63 | GGCAGCAUUGCAAUUUCUATT against AK122209 | inactive: -0.0613
64 | GGACCAGCUGGACAAAAGATT against Zfp238 | inactive: -2.9
65 | GGGUCUUUAUAAGUCUAUGTT against Kbtbd2 | inactive: -0.817
66 | GGCAGGAAUGACUCCUUUUTT against 2410001C21Rik | inactive: -0.605
67 | CCAUGGUCUAGCACAGUGGTT against Cpn2 | inactive: 0.172
68 | GUGUUCGAACAACAUUGUATT against Map3k7 | inactive: -0.0698
69 | GGAAUGGACAAAAUGAUUCTT against Cct4 | inactive: -0.0758
70 | GGAAAUCAGAACUGUAUCUTT against 2310022B05Rik | inactive: 0.686
71 | GGAUCAAGAAUUAGAAAAGTT against Abcc9 | inactive: -0.216
72 | GAGUUCUCUCUCACAGCCCTT against Gp1bb | inactive: -1.01
73 | GCGUGAACGUAUUUGUUACTT against Pcdhgc3 | inactive: -0.183
74 | CCUACCAUAGCAACACUAUTT against Kcna2 | inactive: -1.18
75 | CGUAUGUGCCUUACAUGCUTT against C85492 | inactive: 1.52
76 | GCCCUUCGGGACUUUAUUGTT against Gusb | inactive: -0.873
77 | GGUAUUGGACAAUCAGAUATT against Cit | inactive: 1.76
78 | GCUAUGAAAGAGGGAAGCUTT against Cyp2c54 | inactive: 0.19

Row | Sequence | z-score
79 | GGGCAGGGAGAAAAAAAAATT against BC024561 | inactive: 0.896
80 | GGGUGAAAGACAGAGGACATT against BC006705 | inactive: -2.81
81 | GGGAUGACUUGUUCACAUCTT against Htf9c | inactive: -0.86
82 | GGAUAGCAUCCAUUACUUCTT against AI646023 | inactive: 0.922
83 | GGAAGAAGUACUCCAACUCTT against Eps8l2 | inactive: 0.195
84 | GGUGACUGGUAAAUGCCAGTT against Olfr1502 | inactive: 0.169
85 | GGAGAAUGGUUCAUAUCUGTT against 2310079F23Rik | inactive: 0.566
86 | GCUGAAAUCGAAAACCCGCTT against Atp6v0a1 | inactive: 0.401
87 | GGAAGAAACUGAGAAACUGTT against BC049635 | inactive: -0.323
88 | GGAAGAACGACAAGAACAUTT against Tgfbr2 | inactive: -0.571
89 | CGGGUCCUGUGAAGAACUATT against Sf4 | inactive: -1.52
90 | GGAGAGCAUCAUAUUUGGCTT against Gnb5 | inactive: 0.948
91 | CGUAUUUCACAAAUACGGATT against 4933406N12Rik | inactive: 0.547
92 | GGAAUGGGAUAGAUUUGUUTT against Ung | inactive: -2.49
93 | GGAGAUCAGCAGUUCAUUUTT against Csprs | inactive: -0.615
94 | GGAAUCAGCAAUGGACCCUTT against Parn | inactive: -1.05
95 | GCUUCUUGAUCCAACUGGATT against Zfyve27 | inactive: 0.979
96 | GGUCAUGACAUCAUUGGCGTT against Kcng4 | inactive: 0.719
97 | CGAAGGUCUGUUCGAGAACTT against BC023055 | inactive: -0.647
98 | GGCACUGAAUUCUGUUGCUTT against C730048C13Rik | inactive: -0.12
99 | GCAUCAAGGCAACAAAGAUTT against 2810022L02Rik | inactive: -1.04
100 | GGUACAGGUUGAUGCACUUTT against DXImx50e | inactive: -1.07
101 | CGCAGGACGAUUAUGACGUTT against Pcdhb12 | inactive: 1.09
102 | GGACCAGAAACCGUGAUAATT against Immp2l | inactive: 1.56
103 | GACCUGAAUAAAGACUGUCTT against Cort | inactive: 0.702
104 | CCUUAUAAUUGACACUGAUTT against 4930584N22Rik | inactive: 1.11
